Source: patent publication US9239334B2, “Fatty acid C16: 1N7-palmitoleate a lipokine and biomarker for metabolic status” (PRESIDENT AND FELLOWS OF HARVARD COLLEGE, priority 2008, dated 2016)

Assay: Plasma free fatty acid level during lipid infusion
Assay type: in vivo
Details: during lipid infusion in conscious mice

Row | SMILES | increase in total plasma FFA levels
1 | CCCCCC/C=C\CCCCCCCC(=O)OCC(COC(=O)CCCCCCC/C=C\CCCCCC)OC(=O)CCCCCCC/C=C\CCCCCC [TG-palmitoleate] | 2 fold
2 | CCCCCCCCCCCCCCCC(=O)OCC(COC(=O)CCCCCCCCCCCCCCC)OC(=O)CCCCCCCCCCCCCCC [TG-palmitate, reference compound] | 2 fold
